# Measured values published in PubChem BioAssay AID328 (DTP/NCI, 2004).
# The list does not hold the whole screen: it gathers tests that were run many times, whatever their T/C, doses with no T/C, and many T/C values between a quarter and a half above the control. Other doses and runs of a compound stand elsewhere. T/C: endpoint of the treated group in % of that of the vehicle group. Some doses have a count of surviving animals in place of a T/C: the source holds a T/C of zero for them, seemingly a mark for toxic or unscored doses. Some survivor counts are full or nearly so, which does not show that the dose was tolerated: survival well below the control is almost never listed, so the zero probably covers shortened survival too. Counts of survivors are from the toxicity check (mostly the fifth day) where no day follows; animals may have died later. Schedule codes are those of the source, taken here to give the interval after Q, in days (D) or hours (H), and the number of doses after X. Signs of the kind (2×) say how often a value occurs here. Some entries hold several experiments; the values are given in rising order. Where survival is the endpoint, this PubChem deposit counts one and a half times the control or more as active, and values a quarter to a half above the control carry no call in these data; other NCI protocols may use other cut-offs. Some T/C values are followed by the survivors on the day toxicity was checked, most often the fifth; without a count, all were alive then.
# Test system: BDF1 mice, P388 leukemia ip, median survival T/C
# Assay: NCI In Vivo Anticancer Drug Screen. Data for tumor model P388 Leukemia (intraperitoneal) in B6D2F1 (BDF1) mice
# Conditions: T/C endpoint: median survival time, higher T/C = longer survival
# Summary of the method: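 Read-out is survival of treated animals expressed relative to the vehicle group, as a T/C ratio.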
# [1] = dose: 200.0 mg/kg/injection, schedule: Q04DX003 (ip), vehicle: saline with Tween-80
# [2] = dose: 400.0 mg/kg/injection, schedule: Q04DX003 (ip), vehicle: saline with Tween-80
# [3] = dose: 200.0 mg/kg/injection, schedule: Q01DX009 (ip), vehicle: saline
# [4] = dose: 200.0 mg/kg/injection, schedule: Q01DX009 (ip), vehicle: Klucel (hydroxypropylcellulose) (HPC)
# [5] = dose: 100.0 mg/kg/injection, schedule: Q01DX009 (ip), vehicle: saline with Tween-80
# [6] = dose: 50.0 mg/kg/injection, schedule: Q01DX009 (ip), vehicle: saline with Tween-80
# [7] = dose: 200.0 mg/kg/injection, schedule: Q01DX009 (ip), vehicle: saline with Tween-80
# [8] = dose: 400.0 mg/kg/injection, schedule: Q01DX009 (ip), vehicle: saline with Tween-80
# [9] = dose: 400.0 mg/kg/injection, schedule: Q04DX003 (ip), vehicle: Klucel (hydroxypropylcellulose) (HPC)
# [10] = dose: 10.0 mg/kg/injection, schedule: Q01DX009 (ip), vehicle: saline
structure (smiles),measurement,setting,value
O=NN(CCCl)C(=O)Nc1ccc(I)cc1,T/C,"dose: 1.0 mg/kg/injection, schedule: Q01DX009 (ip), vehicle: saline with Tween-80",131 % of control
same,T/C,"dose: 1.5 mg/kg/injection, schedule: Q01DX009 (ip), vehicle: saline with Tween-80",145 % of control
same,T/C,"dose: 1.8 mg/kg/injection, schedule: Q01DX009 (ip), vehicle: saline",140 % of control
same,T/C,"dose: 3.13 mg/kg/injection, schedule: Q01DX009 (ip), vehicle: saline with Tween-80",141 % of control
same,T/C,"dose: 6.25 mg/kg/injection, schedule: Q01DX009 (ip), vehicle: saline with Tween-80",129 % of control
same,T/C,"dose: 12.5 mg/kg/injection, schedule: Q01DX009 (ip), vehicle: saline with Tween-80",145 % of control
same,T/C,"dose: 100.0 mg/kg/injection, schedule: Q04DX003 (ip), vehicle: saline sonified",130 % of control
same,survivor count,"dose: 150.0 mg/kg/injection, schedule: Q04DX003 (ip), vehicle: saline sonified",4 of 6
same,survivor count,[1],2 of 6
same,survivor count,[2],0 of 6
CCCCCCCC[N+](CC)(CC)CCOC(=O)C(C1CCCC1)C1CCCC1,survivor count,"dose: 5.6 mg/kg/injection, schedule: Q01DX009 (ip), vehicle: saline",3 of 6
same,survivor count,"dose: 8.1 mg/kg/injection, schedule: Q04DX003 (ip), vehicle: saline",5 of 6
same,survivor count,"dose: 8.4 mg/kg/injection, schedule: Q01DX009 (ip), vehicle: saline",1 of 6
same,survivor count,"dose: 12.0 mg/kg/injection, schedule: Q04DX003 (ip), vehicle: saline",2 of 6
Cc1ccc(OC(=O)Nc2ccc(C(=O)O)c(O)c2)cc1,T/C,[3],131 % of control [4 of 6 alive]
same,survivor count,"dose: 400.0 mg/kg/injection, schedule: Q04DX003 (ip), vehicle: saline",3 of 6
COc1cccc2c1C(=O)c1c(O)c3c(c(O)c1C2=O)CC(O)(C(=O)CO)CC3OC1CC(N)C(O)C(C)O1 (configuration not stated),survivor count,"dose: 8.0 mg/kg/injection, schedule: Q01DX004 (ip), vehicle: water",8 of 8
CC(C)=NOC(=O)Nc1ccc(Cl)cc1,survivor count,[4],6 of 6
CCOC(=O)C1=C(C)NC(C)=C(C(=O)OCC)C1c1ccccc1,survivor count,[5],6 of 6
Cc1ccc(NCCNCC(C)(C)O)c2c(=O)c3ccccc3sc12,T/C,"dose: 115.0 mg/kg/injection, schedule: Q04DX003 (ip), vehicle: saline",131 % of control [5 of 6 alive]
same,survivor count,"dose: 170.0 mg/kg/injection, schedule: Q04DX003 (ip), vehicle: saline",3 of 6
C1=CC2CC1C1CSCC21 (configuration not stated),survivor count,"dose: 0.55 mg/kg/injection, schedule: Q04DX003 (ip), vehicle: saline",2 of 6
same,survivor count,"dose: 0.78 mg/kg/injection, schedule: Q01DX009 (ip), vehicle: saline",6 of 6
same,survivor count,"dose: 1.1 mg/kg/injection, schedule: Q04DX003 (ip), vehicle: saline",0 of 6
COc1cc2c(c(OC)c1OC)C(=O)/C(=C\c1ccccc1)O2,survivor count,[6],6 of 6
same,survivor count,[5],6 of 6
NC(=O)NOCC1NC(=O)C(CONC(N)=O)NC1=O (configuration not stated),survivor count,[3],6 of 6
O=[N+]([O-])c1ccc(S(=O)(=O)c2ccccc2)c2nonc12,survivor count,[5],5 of 7
Cc1ncc([N+](=O)[O-])n1CCSC(=N)N,survivor count,[2],1 of 6
Oc1cccc2cccnc12,survivor count,[7],1 of 6
CC1=CC(=O)c2c(O)cc(C)c(C(=O)C(Cl)Cl)c2C1=O,survivor count,"dose: 40.0 mg/kg/injection, schedule: Q01DX009 (ip), vehicle: Klucel (hydroxypropylcellulose) (HPC)",4 of 6
Cc1ccccc1N1C(=O)CSC1=S,T/C,[1],127 % of control
Cc1cc(-c2ccc(Cl)cc2)[n+](C)n1C,survivor count,[6],1 of 6
COC1=CC(=O)c2c(O)cc(OC)cc2C1=O,T/C,"dose: 5.0 mg/kg/injection, schedule: Q01DX009 (ip), vehicle: saline with Tween-80",129 % of control
same,T/C,"dose: 10.0 mg/kg/injection, schedule: Q01DX009 (ip), vehicle: saline with Tween-80",132 % of control
CC(=O)c1cc(CN(CCCl)CCCl)c(O)c(CN(CCCl)CCCl)c1O,T/C,"dose: 3.13 mg/kg/injection, schedule: Q01DX009 (ip), vehicle: Klucel (hydroxypropylcellulose) (HPC)",127 % of control
same,T/C,"dose: 12.5 mg/kg/injection, schedule: Q01DX009 (ip), vehicle: Klucel (hydroxypropylcellulose) (HPC)",131 % of control
same,survivor count,"dose: 25.0 mg/kg/injection, schedule: Q01DX009 (ip), vehicle: Klucel (hydroxypropylcellulose) (HPC)",3 of 6
same,survivor count,"dose: 50.0 mg/kg/injection, schedule: Q01DX009 (ip), vehicle: Klucel (hydroxypropylcellulose) (HPC)",1 of 6
same,survivor count,"dose: 100.0 mg/kg/injection, schedule: Q01DX009 (ip), vehicle: Klucel (hydroxypropylcellulose) (HPC)",0 of 6
same,survivor count,[4],0 of 6
O=C(O)c1cc(-c2ccccc2)[nH]c1-c1ccccc1,survivor count,"dose: 100.0 mg/kg/injection, schedule: Q01DX009 (ip), vehicle: saline",6 of 6
same,survivor count,[3],5 of 6
CCCCN(CCCC)CCC(=O)c1ccc(OC)c2ccccc12,survivor count,[5],1 of 6
same,survivor count,[7],0 of 6
Cc1cccc2c1CC(C(C)C)C2 (configuration not stated),survivor count,[8],0 of 6
NC(=O)Nc1cccc2ccccc12,survivor count,"dose: 100.0 mg/kg/injection, schedule: Q01DX009 (ip), vehicle: gum acacia",6 of 6
same,survivor count,[9],6 of 6
COC(=O)C(CCC(=O)O)NC(=O)OCc1ccccc1 (configuration not stated),survivor count,"dose: 200.0 mg/kg/injection, schedule: Q04DX003 (ip), vehicle: Klucel (hydroxypropylcellulose) (HPC)",2 of 6
same,survivor count,[9],0 of 6
C1CN1P1(N2CC2)=NP(N2CC2)(N2CC2)=NP(N2CC2)(N2CC2)=NP(N2CC2)(N2CC2)=N1,T/C,"dose: 0.83 mg/kg/injection, schedule: Q04DX003 (ip), vehicle: saline",125 % of control
same,T/C,"dose: 1.2 mg/kg/injection, schedule: Q04DX003 (ip), vehicle: saline",133 % of control
same,T/C,"dose: 1.25 mg/kg/injection, schedule: Q04DX003 (ip), vehicle: saline",127 % of control
same,T/C,"dose: 2.5 mg/kg/injection, schedule: Q04DX003 (ip), vehicle: saline",140 % of control
same,survivor count,"dose: 6.6 mg/kg/injection, schedule: Q01DX009 (ip), vehicle: saline",6 of 6
same,T/C,"dose: 6.6 mg/kg/injection, schedule: Q04DX003 (ip), vehicle: saline",127 % of control
same,T/C,[10],135 % of control
same,survivor count,[10],6 of 6
same,survivor count,"dose: 15.0 mg/kg/injection, schedule: Q01DX009 (ip), vehicle: saline",6 of 6
same,T/C,"dose: 20.0 mg/kg/injection, schedule: Q04DX003 (ip), vehicle: saline","104, 180, 285, 300 % of control"
same,survivor count,"dose: 30.0 mg/kg/injection, schedule: Q04DX003 (ip), vehicle: saline",6 of 6
same,survivor count,"dose: 40.0 mg/kg/injection, schedule: Q04DX003 (ip), vehicle: saline",4 of 6
same,survivor count,"dose: 80.0 mg/kg/injection, schedule: Q04DX003 (ip), vehicle: saline",5 of 6
C=CC=O,survivor count,"dose: 3.13 mg/kg/injection, schedule: Q01DX009 (ip), vehicle: saline",3 of 6
same,survivor count,"dose: 12.5 mg/kg/injection, schedule: Q01DX009 (ip), vehicle: saline",0 of 6
same,survivor count,"dose: 25.0 mg/kg/injection, schedule: Q04DX003 (ip), vehicle: saline",6 of 6
CC(CS(=O)(=O)O)N1CCOCC1 (configuration not stated),survivor count,"dose: 400.0 mg/kg/injection, schedule: Q01DX009 (ip), vehicle: saline",6 of 6
COC1CC(N=[N+]=[N-])C(OC(=O)c2ccccc2)C(C)O1 (configuration not stated),survivor count,"dose: 25.0 mg/kg/injection, schedule: Q01DX009 (ip), vehicle: saline with Tween-80",6 of 6
same,survivor count,[6],5 of 6 and 6 of 6
same,survivor count,[5],2 of 6
same,survivor count,[7],4 of 6 (2×)
same,survivor count,[8],6 of 6
